Test results published in article PMC12781873.
These are yes or no findings as the source states them, for the method shown. Binding seen in cells or lysates may run through a third protein. Some binding calls cover weakened binding; strength is not graded here. For some assays here: Sequences can lack the tags named with a protein.

T1: Prp24 (S. cerevisiae) (UniProt P49960)
T1 sequence: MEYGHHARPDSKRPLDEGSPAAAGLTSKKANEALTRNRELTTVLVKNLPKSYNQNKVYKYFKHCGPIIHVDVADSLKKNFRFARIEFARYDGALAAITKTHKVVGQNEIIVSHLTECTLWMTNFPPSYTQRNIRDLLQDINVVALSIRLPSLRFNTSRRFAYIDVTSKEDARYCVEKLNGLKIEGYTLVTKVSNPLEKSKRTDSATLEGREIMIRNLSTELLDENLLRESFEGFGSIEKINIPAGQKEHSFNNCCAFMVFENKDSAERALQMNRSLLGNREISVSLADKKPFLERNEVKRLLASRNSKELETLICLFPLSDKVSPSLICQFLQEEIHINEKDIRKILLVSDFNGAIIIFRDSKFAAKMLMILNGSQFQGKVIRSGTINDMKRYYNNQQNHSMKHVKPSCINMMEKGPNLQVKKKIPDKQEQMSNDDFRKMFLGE

T2: Lhp1–GFP (S. cerevisiae) (UniProt P33399)
T2 sequence: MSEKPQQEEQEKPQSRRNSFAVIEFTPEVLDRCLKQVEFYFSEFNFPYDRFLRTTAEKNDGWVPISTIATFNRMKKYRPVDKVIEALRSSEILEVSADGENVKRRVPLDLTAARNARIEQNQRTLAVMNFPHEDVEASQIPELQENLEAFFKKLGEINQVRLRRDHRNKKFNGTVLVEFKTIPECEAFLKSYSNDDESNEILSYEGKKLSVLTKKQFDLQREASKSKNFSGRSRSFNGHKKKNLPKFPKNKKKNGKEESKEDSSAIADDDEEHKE

T3: Mtr10–GFP (S. cerevisiae) (UniProt Q99189)
T3 sequence: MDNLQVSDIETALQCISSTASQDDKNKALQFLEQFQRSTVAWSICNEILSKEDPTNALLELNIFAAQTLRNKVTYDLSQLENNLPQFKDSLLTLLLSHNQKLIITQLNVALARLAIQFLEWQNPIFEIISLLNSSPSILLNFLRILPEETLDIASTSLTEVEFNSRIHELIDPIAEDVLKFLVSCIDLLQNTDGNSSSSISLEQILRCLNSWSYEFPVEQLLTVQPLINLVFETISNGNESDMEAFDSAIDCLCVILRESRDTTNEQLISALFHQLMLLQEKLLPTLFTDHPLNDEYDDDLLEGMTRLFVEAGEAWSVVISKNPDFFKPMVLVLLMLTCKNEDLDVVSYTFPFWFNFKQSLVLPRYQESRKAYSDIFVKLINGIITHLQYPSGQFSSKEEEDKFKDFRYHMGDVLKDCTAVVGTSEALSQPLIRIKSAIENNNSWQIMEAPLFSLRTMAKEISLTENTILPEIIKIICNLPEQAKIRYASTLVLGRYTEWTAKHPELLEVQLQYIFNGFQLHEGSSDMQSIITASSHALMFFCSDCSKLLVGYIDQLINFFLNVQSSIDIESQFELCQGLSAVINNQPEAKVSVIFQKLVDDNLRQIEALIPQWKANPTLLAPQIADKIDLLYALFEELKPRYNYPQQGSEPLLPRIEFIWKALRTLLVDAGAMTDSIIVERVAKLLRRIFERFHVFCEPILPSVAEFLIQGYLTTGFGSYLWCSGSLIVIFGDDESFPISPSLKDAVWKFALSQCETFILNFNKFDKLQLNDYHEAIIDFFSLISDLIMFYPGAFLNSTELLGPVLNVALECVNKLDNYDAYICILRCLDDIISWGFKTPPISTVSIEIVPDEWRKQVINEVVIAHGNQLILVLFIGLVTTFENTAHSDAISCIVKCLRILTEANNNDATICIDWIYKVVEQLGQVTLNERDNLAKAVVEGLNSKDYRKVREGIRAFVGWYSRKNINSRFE

T4: Cse1–GFP (S. cerevisiae) (UniProt P33307)
T4 sequence: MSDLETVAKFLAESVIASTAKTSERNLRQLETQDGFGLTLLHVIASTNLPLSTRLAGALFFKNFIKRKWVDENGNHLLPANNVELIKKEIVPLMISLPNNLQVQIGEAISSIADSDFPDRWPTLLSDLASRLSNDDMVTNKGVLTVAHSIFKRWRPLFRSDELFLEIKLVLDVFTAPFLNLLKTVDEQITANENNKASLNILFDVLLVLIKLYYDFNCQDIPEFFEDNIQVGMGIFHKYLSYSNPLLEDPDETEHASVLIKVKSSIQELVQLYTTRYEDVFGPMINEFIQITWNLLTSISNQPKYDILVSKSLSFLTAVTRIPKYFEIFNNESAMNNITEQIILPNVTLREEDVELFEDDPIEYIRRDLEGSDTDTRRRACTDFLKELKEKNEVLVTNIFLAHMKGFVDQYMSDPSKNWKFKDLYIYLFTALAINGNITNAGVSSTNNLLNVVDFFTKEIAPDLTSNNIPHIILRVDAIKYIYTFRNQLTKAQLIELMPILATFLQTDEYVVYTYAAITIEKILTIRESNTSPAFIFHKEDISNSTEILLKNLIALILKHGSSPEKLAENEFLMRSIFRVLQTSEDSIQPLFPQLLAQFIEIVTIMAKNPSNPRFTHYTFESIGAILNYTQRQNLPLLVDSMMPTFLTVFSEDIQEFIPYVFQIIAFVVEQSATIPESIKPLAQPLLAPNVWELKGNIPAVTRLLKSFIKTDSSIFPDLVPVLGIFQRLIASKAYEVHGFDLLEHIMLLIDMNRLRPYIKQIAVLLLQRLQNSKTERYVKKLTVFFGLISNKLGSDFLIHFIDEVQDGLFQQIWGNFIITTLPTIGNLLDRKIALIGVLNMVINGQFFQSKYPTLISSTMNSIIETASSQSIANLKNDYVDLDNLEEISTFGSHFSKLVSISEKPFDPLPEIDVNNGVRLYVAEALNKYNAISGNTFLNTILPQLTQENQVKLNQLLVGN

B1: export receptor heterodimer Mex67–Mtr2 (complex, UniProt Q99257 1-599; P34232 1-184)
chain 1: MSGFHNVGNINMMAQQQMQQNRIKISVRNWQNATMNDLINFISRNARVAVYDAHVEGPLVIGYVNSKAEAESLMKWNGVRFAGSNLKFELLDNNGASAGTSDTISFLRGVLLKRYDPQTKLLNLGALHSDPELIQKGVFSSISTQSKMFPAMMKLASTEKSLIVESVNLADNQLKDISAISTLAQTFPNLKNLCLANNQIFRFRSLEVWKNKFKDLRELLMTNNPITTDKLYRTEMLRLFPKLVVLDNVIVRDEQKLQTVYSLPMKIQQFFFENDALGQSSTDFATNFLNLWDNNREQLLNLYSPQSQFSVSVDSTIPPSTVTDSDQTPAFGYYMSSSRNISKVSSEKSIQQRLSIGQESINSIFKTLPKTKHHLQEQPNEYSMETISYPQINGFVITLHGFFEETGKPELESNKKTGKNNYQKNRRYNHGYNSTSNNKLSKKSFDRTWVIVPMNNSVIIASDLLTVRAYSTGAWKTASIAIAQPPQQQASVLPQVASMNPNITTPPQPQPSVVPGGMSIPGAPQGAMVMAPTLQLPPDVQSRLNPVQLELLNKLHLETKLNAEYTFMLAEQSNWNYEVAIKGFQSSMNGIPREAFVQF
chain 2: MNTNSNTMVMNDANQAQITATFTKKILAHLDDPDSNKLAQFVQLFNPNNCRIIFNATPFAQATVFLQMWQNQVVQTQHALTGVDYHAIPGSGTLICNVNCKVRFDESGRDKMGQDATVPIQPNNTGNRNRPNDMNKPRPLWGPYFGISLQLIIDDRIFRNDFNGVISGFNYNMVYKPEDSLLKI
B2: Lsm8-myc (protein, UniProt P47093 1-109)
chain: MSATLKDYLNKRVVIIKVDGECLIASLNGFDKNTNLFITNVFNRISKEFICKAQLLRGSEIALVGLIDAENDDSLAPIDEKKVPMLKDTKNKIENEHVIWEKVYESKTK

Key:
Assay in all cases: co-IP; yeast lysate in PBSKMT buffer (PBS pH 7.4, 3 mM KCl, 2.5 mM MgCl2, 0.5 % Triton X-100); lysate split in two, one portion with RNase A 200 μg/ml; GFP- or MYC-tagged protein precipitated on GFP- or MYC-conjugated beads, 5 h at 4°C; western blot; Mex67 with Lhp1 also in the lsm8-1 mutant
Prp24 (S. cerevisiae) = target: T1, Prp24 (S. cerevisiae)
Lhp1–GFP (S. cerevisiae) = target: T2, Lhp1–GFP (S. cerevisiae)
[1] = target: T3, Mtr10–GFP (S. cerevisiae)
Cse1–GFP (S. cerevisiae) = target: T4, Cse1–GFP (S. cerevisiae)

binding (Prp24 (S. cerevisiae))	binding (Lhp1–GFP (S. cerevisiae))	binding [1]	binding (Cse1–GFP (S. cerevisiae))	Binder
no binding	binds	–	–	B1
–	binds	binds	binds	B2
